Results published in patent US20180213779A1, “PESTICIDALLY ACTIVE HETEROCYCLIC DERIVATIVES WITH SULPHUR CONTAINING SUBSTITUENTS” (SYNGENTA PARTICIPATIONS AG, priority 2015, published 2018).
Some results were stated once for a whole list of compounds, not compound by compound. At least one compound was matched to its structure with a doubt left.

Key:
[1] = system: Plutella xylostella (Diamond Back Moth); experiment: Example B11: Activity against Plutella xylostella (artificial diet, 24-well, L2 larvae); type: in vivo; details: application rate of 200 ppm, 5 days after infestation
Procedure: Example B11: Activity Against Plutella xylostella (Diamond Back Moth)
24-well microtiter plates with artificial diet were treated with aqueous test solutions prepared from 10′000 ppm DMSO stock solutions by pipetting. After drying, the plates were infested with L2 larvae (10 to 15 per well). The samples were assessed for mortality and growth inhibition in comparison to untreated samples 5 days after infestation.

[2] = system: Plutella xylostella (Diamond-Back Moth); experiment: Example B3: Plutella xylostella larvicide, feeding/contact activity, preventative (artificial diet, 96-well); type: in vivo; details: application rate of 500 ppm; mortality assessed 9 days after treatment
Procedure: Example B3: Plutella xylostella (Diamond-Back Moth) larvicide, feeding/contact activity, preventative Artificial diet was dispensed into a 96-well microtiter plate and treated with aqueous test solutions prepared from 10′000 ppm DMSO stock solutions. Eggs were suspended above the treated diet and first instar larvae hatched onto the diet. Mortality was assessed 9 days after treatment.

SMILES: CCS(=O)(=O)c1ccc[n+]([O-])c1-c1cn(-c2ccc(C(F)(F)F)cc2)nn1 [Compound P18, 3-ethylsulfonyl-1-oxido-2-[1-[4-(trifluoromethyl)phenyl]triazol-4-yl]pyridin-1-ium]
- effect in at least one of the two categories (mortality or growth inhibition) [1]: at least 80%
- control of Plutella xylostella [2]: at least 70%
